Data: patent US9206206B2, “Oxidized lipid compounds and uses thereof” (Vascular Biogenics Ltd., priority 2008, dated 2015)
Some results were stated once for a whole list of compounds, not compound by compound.

Test system: mouse peritoneal macrophages
Experiment: In vitro toxicity assay
Type: cell-based
Details: 24 hours, crystal violet cell number
Procedure: Thioglycollate-elicited mouse peritoneal macrophages were washed, counted and seeded (2×10^5 to 3×10^5 cells per well in 24-well plates) in triplicate wells in medium containing RPMI-1640, L-glutamine, 10% FBS and antibiotics (penicillin/streptomycin). After a recovery period of 24 hours, the tested compound (or controls) was added to the cell medium at doses of 2, 10, 20, 50, 100 or 150 μg/ml, keeping the added volume equal in all treatments by complementing the volume with solvent.
Following addition of the compounds, the cells were incubated for an additional 24 hours, after which the cells were washed, fixed with a solution of 10% methanol/10% acetic acid and stained with crystal violet (0.4% in 20% ethanol). Cell numbers were measured by determining optical density at 595 nm. Cells incubated with vehicle (PBS with 1% ethanol) were used as a control, to which cell numbers in treated samples were normalized.
Data are presented as mean±standard deviation. Statistical significance relative to vehicle-treated cells was calculated using a student's t-test, with p-values of less than 0.05 being considered as indicating statistical significance.

NCCOP(=O)(O)OCC(COCCCCCCCCCCCCCCCC(=O)O)OCCCCC(=O)O (stereo not shown) [CI-214, 1-(15′-carboxy)pentadecyl-2-(4-carboxy)butyl-glycero-3-phosphoethanolamine]
LD50: higher than 150 μg/ml
